Experimental data: PubChem BioAssay AID1224830 (NIAID, 2016)
Aim: 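Regulators of TLR4 signalling towards TNF-alpha in macrophage-like cells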 (primary screen). System: human THP-1 monocytic leukaemia cells, TNF dual-luciferase reporter clone, PMA-differentiated to macrophage-like cells. Knock-down reagent: siRNA pool against human genes, 50 nM. Duration: LPS for 4 h, given about 3 days after siRNA transfection. Challenge: bacterial LPS (TLR4 ligand), 10 ng/ml. Read-out: 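TNF firefly reporter luminescence divided by renilla, normalised to the plate median, then turned into a robust z-score for each replicate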. Reading the numbers: TNF reporter robust z-score: higher = stronger TNF reporter response to LPS. Hit rule: 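a well is active when its z-score exceeds 2.8 or falls below -1.5; control wells carry no call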.
The whole screen tested about 18,000 reagents; below is an unselected part. About 2,900 of them (16%) count as active. 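Calls are made per well; low scores hint the gene aids the LPS response, high scores that it dampens it.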 Repeated entries: four replicate wells of each siRNA pool.

Gene	TNF reporter robust z-score	activity call
FBXW12 (F-box and WD repeat domain containing 12)	0.76	inactive
FBXW12 (F-box and WD repeat domain containing 12)	-0.32	inactive
FBXW12 (F-box and WD repeat domain containing 12)	-1.41	inactive
FBXW12 (F-box and WD repeat domain containing 12)	-0.37	inactive
NAPRT (nicotinate phosphoribosyltransferase)	1.8	inactive
NAPRT (nicotinate phosphoribosyltransferase)	-0.12	inactive
NAPRT (nicotinate phosphoribosyltransferase)	2.43	inactive
NAPRT (nicotinate phosphoribosyltransferase)	2.57	inactive
PLPPR4 (phospholipid phosphatase related 4)	2.13	inactive
PLPPR4 (phospholipid phosphatase related 4)	0.09	inactive
PLPPR4 (phospholipid phosphatase related 4)	0.93	inactive
PLPPR4 (phospholipid phosphatase related 4)	1.96	inactive
SETDB1 (SET domain bifurcated histone lysine methyltransferase 1)	-0.04	inactive
SETDB1 (SET domain bifurcated histone lysine methyltransferase 1)	0.78	inactive
SETDB1 (SET domain bifurcated histone lysine methyltransferase 1)	1.25	inactive
SETDB1 (SET domain bifurcated histone lysine methyltransferase 1)	0.68	inactive
LINC00336 (long independently transcribed non-coding RNA 336)	0.78	inactive
LINC00336 (long independently transcribed non-coding RNA 336)	1.92	inactive
LINC00336 (long independently transcribed non-coding RNA 336)	0.9	inactive
LINC00336 (long independently transcribed non-coding RNA 336)	1.05	inactive
PSG9 (pregnancy specific beta-1-glycoprotein 9)	1.08	inactive
PSG9 (pregnancy specific beta-1-glycoprotein 9)	0.52	inactive
PSG9 (pregnancy specific beta-1-glycoprotein 9)	-0.85	inactive
PSG9 (pregnancy specific beta-1-glycoprotein 9)	-0.49	inactive
AP1M2 (adaptor related protein complex 1 subunit mu 2)	0.91	inactive
AP1M2 (adaptor related protein complex 1 subunit mu 2)	0.58	inactive
AP1M2 (adaptor related protein complex 1 subunit mu 2)	0.16	inactive
AP1M2 (adaptor related protein complex 1 subunit mu 2)	1.01	inactive
TSN (translin)	-0.65	inactive
TSN (translin)	-0.92	inactive
TSN (translin)	0.34	inactive
TSN (translin)	-0.41	inactive
SAPCD1 (suppressor APC domain containing 1)	-0.4	inactive
SAPCD1 (suppressor APC domain containing 1)	0.03	inactive
SAPCD1 (suppressor APC domain containing 1)	-0.43	inactive
SAPCD1 (suppressor APC domain containing 1)	-0.03	inactive
MACC1 (MET transcriptional regulator MACC1)	-0.47	inactive
MACC1 (MET transcriptional regulator MACC1)	-1.11	inactive
MACC1 (MET transcriptional regulator MACC1)	-0.13	inactive
MACC1 (MET transcriptional regulator MACC1)	-0.55	inactive
PNOC (prepronociceptin)	-0.68	inactive
PNOC (prepronociceptin)	-0.25	inactive
PNOC (prepronociceptin)	-1.14	inactive
PNOC (prepronociceptin)	-0.77	inactive
PRSS55 (serine protease 55)	0.52	inactive
PRSS55 (serine protease 55)	1.08	inactive
PRSS55 (serine protease 55)	0.64	inactive
PRSS55 (serine protease 55)	0.14	inactive
LAMP3 (lysosome associated membrane protein 3)	-1.08	inactive
LAMP3 (lysosome associated membrane protein 3)	-0.84	inactive
LAMP3 (lysosome associated membrane protein 3)	-1.15	inactive
LAMP3 (lysosome associated membrane protein 3)	-0.49	inactive
UBTFL7 (UBTF like 7 (pseudogene))	-1.59	active
UBTFL7 (UBTF like 7 (pseudogene))	-0.38	inactive
UBTFL7 (UBTF like 7 (pseudogene))	0.31	inactive
UBTFL7 (UBTF like 7 (pseudogene))	-0.39	inactive
SLC41A1	2.2	inactive
SLC41A1	2.57	inactive
SLC41A1	1.55	inactive
SLC41A1	2.37	inactive
GULP1 (GULP PTB domain containing engulfment adaptor 1)	1.06	inactive
GULP1 (GULP PTB domain containing engulfment adaptor 1)	1.32	inactive
GULP1 (GULP PTB domain containing engulfment adaptor 1)	0.44	inactive
GULP1 (GULP PTB domain containing engulfment adaptor 1)	0.86	inactive
POC1B (POC1 centriolar protein B)	-0.15	inactive
POC1B (POC1 centriolar protein B)	-0.87	inactive
POC1B (POC1 centriolar protein B)	-0.86	inactive
POC1B (POC1 centriolar protein B)	-0.19	inactive
ZNF451 (zinc finger protein 451)	1.09	inactive
ZNF451 (zinc finger protein 451)	-0.5	inactive
ZNF451 (zinc finger protein 451)	-0.06	inactive
ZNF451 (zinc finger protein 451)	-0.67	inactive
ZNF383 (zinc finger protein 383)	-0.89	inactive
ZNF383 (zinc finger protein 383)	-0.69	inactive
ZNF383 (zinc finger protein 383)	-0.65	inactive
ZNF383 (zinc finger protein 383)	-0.23	inactive
HDGF (heparin binding growth factor)	0.18	inactive
HDGF (heparin binding growth factor)	0.64	inactive
HDGF (heparin binding growth factor)	0.02	inactive
HDGF (heparin binding growth factor)	0.01	inactive
COLGALT1 (collagen beta(1-O)galactosyltransferase 1)	-0.45	inactive
COLGALT1 (collagen beta(1-O)galactosyltransferase 1)	-0.8	inactive
COLGALT1 (collagen beta(1-O)galactosyltransferase 1)	1.1	inactive
COLGALT1 (collagen beta(1-O)galactosyltransferase 1)	1.59	inactive
CLMP (CXADR like cell adhesion molecule)	-0.09	inactive
CLMP (CXADR like cell adhesion molecule)	-0.31	inactive
CLMP (CXADR like cell adhesion molecule)	0.72	inactive
CLMP (CXADR like cell adhesion molecule)	0.02	inactive
INPP5A (inositol polyphosphate-5-phosphatase A)	-0.49	inactive
INPP5A (inositol polyphosphate-5-phosphatase A)	-0.37	inactive
INPP5A (inositol polyphosphate-5-phosphatase A)	-0.11	inactive
ZNF418 (zinc finger protein 418)	-0.3	inactive
ZNF418 (zinc finger protein 418)	-0.58	inactive
ZNF418 (zinc finger protein 418)	-0.49	inactive
ZNF418 (zinc finger protein 418)	0.11	inactive
BPIFA1 (BPI fold containing family A member 1)	-1.38	inactive
BPIFA1 (BPI fold containing family A member 1)	-1.61	active
BPIFA1 (BPI fold containing family A member 1)	-1.14	inactive
BPIFA1 (BPI fold containing family A member 1)	0.57	inactive
SMAD5 (SMAD family member 5)	0.41	inactive
SMAD5 (SMAD family member 5)	-0.22	inactive
SMAD5 (SMAD family member 5)	0.27	inactive
SMAD5 (SMAD family member 5)	0.01	inactive
CMSS1 (cms1 ribosomal small subunit homolog)	0.78	inactive
CMSS1 (cms1 ribosomal small subunit homolog)	1.28	inactive
CMSS1 (cms1 ribosomal small subunit homolog)	0.97	inactive
CMSS1 (cms1 ribosomal small subunit homolog)	1.1	inactive
MSN (moesin)	0.37	inactive
MSN (moesin)	0.03	inactive
MSN (moesin)	-0.55	inactive
MSN (moesin)	-1.27	inactive
VWA5A (von Willebrand factor A domain containing 5A)	0.55	inactive
VWA5A (von Willebrand factor A domain containing 5A)	-0.27	inactive
VWA5A (von Willebrand factor A domain containing 5A)	-0.43	inactive
VWA5A (von Willebrand factor A domain containing 5A)	-0.46	inactive
ATP8B1 (ATPase phospholipid transporting 8B1)	-0.75	inactive
ATP8B1 (ATPase phospholipid transporting 8B1)	-0.35	inactive
ATP8B1 (ATPase phospholipid transporting 8B1)	-0.34	inactive
ATP8B1 (ATPase phospholipid transporting 8B1)	-0.17	inactive
RPSA (ribosomal protein SA)	-0.74	inactive
RPSA (ribosomal protein SA)	-0.79	inactive
RPSA (ribosomal protein SA)	-0.65	inactive
RPSA (ribosomal protein SA)	-1.09	inactive
CDX2 (caudal type homeobox 2)	-0.71	inactive
CDX2 (caudal type homeobox 2)	0.15	inactive
CDX2 (caudal type homeobox 2)	-1.14	inactive
CDX2 (caudal type homeobox 2)	-1.16	inactive
TIMM9 (translocase of inner mitochondrial membrane 9)	-1.18	inactive
TIMM9 (translocase of inner mitochondrial membrane 9)	-0.61	inactive
TIMM9 (translocase of inner mitochondrial membrane 9)	0.56	inactive
TIMM9 (translocase of inner mitochondrial membrane 9)	-0.2	inactive
CD80 (CD80 molecule)	0.25	inactive
CD80 (CD80 molecule)	1.99	inactive
CD80 (CD80 molecule)	-0.74	inactive
CD80 (CD80 molecule)	0.79	inactive
ANKRD49 (ankyrin repeat domain 49)	0.05	inactive
ANKRD49 (ankyrin repeat domain 49)	0.98	inactive
ANKRD49 (ankyrin repeat domain 49)	-0.02	inactive
ANKRD49 (ankyrin repeat domain 49)	0.34	inactive
GJA8 (gap junction protein alpha 8)	-1.43	inactive
GJA8 (gap junction protein alpha 8)	-1.11	inactive
GJA8 (gap junction protein alpha 8)	-1.32	inactive
GJA8 (gap junction protein alpha 8)	-1.34	inactive

An excerpt of the results above, for reference:
Gene	TNF reporter robust z-score	activity call
ZNF383 (zinc finger protein 383)	-0.89	inactive
ZNF383 (zinc finger protein 383)	-0.69	inactive
ZNF383 (zinc finger protein 383)	-0.65	inactive
ZNF383 (zinc finger protein 383)	-0.23	inactive
HDGF (heparin binding growth factor)	0.18	inactive
HDGF (heparin binding growth factor)	0.64	inactive
